Data from patent US20040105907A1, “Anti-inflammatory effects of the partially purified extract of radix stephaniae tetrandrae” (priority 2002, published 2004).
For part of these data: For at least one compound, name, drawing or mass did not settle the structure. Some results were stated once for a whole list of compounds, not compound by compound.

Key:
[1] = tested on: neutrophils; assay: Cell viability / cytotoxicity by propidium iodide exclusion assay; format: cell-based; details: 1-10 μg/ml
Description: FIG. 17. Effects of Fan, Tet or SPRST on cell viability. Cell viability was measured by a propidium iodide exclusion assay. After incubation of cells (2×10^6/ml) with SPRST or test drugs for 1 h, cell suspension was further incubated with propidium iodide (10 μg/ml) and fluorescein diacetate (100 ng/ml) at room temperature for 10 min. Cell suspension was analyzed immediately on a flow cytometer (FACSCalibur™; Becton Dickinson) by recording forward and light scatter, red (>630 nm) and green (520 nm) fluorescence. […] Cell viability (%) was calculated by the CellQuest® software (Becton Dickinson) on a Power Macintosh 7300/200 computer. […]
Estimation of cell viability. Cell viability was determined according to Ormerod's method (Ormerod, M. G., 2000. Further applications to cell biology. In: Ormerod, M. G (Ed.), Flow cytometry, Third edition. Oxford University Press, UK, pp. 249-250) after incubation of, cells (2×10^6/ml) with test drugs for 1 h in 5-ml polystyrene round-bottomed tube (FALCON, Becton Dicson). […] After incubation with test drugs, cells suspension were further incubated with propidium iodide and fluorescein diacetate at room temperature for 10 min and analyzed immediately on a flow cytometer (FACSCalibur™; Becton Dickinson) by recording forward and light scatter, red (>630 nm) and green (520 nm) fluorescence. […]

[2] = tested on: human neutrophils; assay: AlF4−-induced (direct G protein activation) [Ca2+]i increment; format: cell-based; details: 5-10 μg/ml; AlF4− (10 mM NaF plus 10 μM AlCl3); P<0.05, n=5
[3] = tested on: human neutrophils; assay: fMLP- or LTB4-induced intracellular calcium concentration ([Ca2+]i), fura-2; format: cell-based; details: 5-10 μg/ml; fMLP 1 μM or LTB4 0.1 μM; P<0.05, n=4-8
[4] = tested on: human neutrophils; assay: Intracellular pH (pHi) alkalization by flow cytometry (BCECF); format: cell-based; details: 10 μg/ml pretreatment; fMLP 1 μM; ANOVA P<0.05, n=5
[5] = tested on: human neutrophils; assay: AlF4−-induced neutrophil firm adhesion; format: cell-based; details: 5-10 μg/ml; AlF4− (10 mM NaF plus 10 μM AlCl3); P<0.05, n=5
[6] = tested on: human neutrophils; assay: Neutrophil firm adhesion to fibrinogen-coated plates (BCECF fluorescence); format: cell-based
[7] = tested on: human neutrophils; assay: Flow cytometric analysis of intracellular ROS (O2- and H2O2) production; format: cell-based; details: 5-10 μg/ml; fMLP 1 μM, 30 min; P<0.05, n=5-8
[8] = tested on: Mac-1 (CD11b/CD18); assay: Mac-1 upregulation on neutrophil surface by flow cytometry; format: cell-based, human; details: 5-10 μg/ml; fMLP 1 μM or LTB4 0.1 μM; P<0.05, n=3-5

Row | Structure (SMILES) | viability after drugs treatment [1] | AlF4−-induced [Ca2+]i increment [2] | inhibition of fMLP- or LTB4-triggered rapid increase in [Ca2+]i [3] | limitation of fMLP-induced cytosolic alkalization (pHi) [4] | AlF4−-induced neutrophil firm adhesion [5] | effect on spontaneous neutrophil adhesion or transmigration ([6]; drug alone, no stimulus, ANOVA P>0.05) | attenuation of neutrophil firm adhesion or transmigration ([6]; pretreated with 0.1 μg/ml of Tet or Fan, single or combined, data not shown) | inhibition of fMLP- or LTB4-induced neutrophil firm adhesion ([6]; pretreatment 1-10 μg/ml, 10 min, fMLP 1 μM or LTB4 0.1 μM, 15 min) | fluorescence intensity of DCF (H2O2) induced by fMLP [7] | fluorescence intensity of EB (O2−) induced by fMLP [7] | inhibition of fMLP- or LTB4-induced Mac-1 upregulation [8]
1 | COc1ccc2cc1Oc1ccc(cc1)C[C@H]1c3cc(c(OC)cc3CCN1C)Oc1c(OC)c(OC)cc3c1[C@H](C2)N(C)CC3 [Tet, tetrandrine] | more than 98% |  |  |  |  |  |  |  |  |  | 
2 | COc1ccc2cc1Oc1ccc(cc1)C[C@H]1c3cc(c(OC)cc3CCN1C)Oc1c(O)c(OC)cc3c1[C@H](C2)N(C)CC3 [Fan, fangchinoline] | more than 98% | concentration-dependently decreased | concentration-dependently inhibited | significantly limited | concentration-dependently decreased | did not influence | neither single drug treatment nor combination of Tet and Fan could attenuate | does-dependently inhibited | concentration-dependently decreased | concentration-dependently decreased | significantly inhibited
